The record followed here is article PMC5431654.

The chains behind the UniProt entries cited, without tags or fusion partners. Where a name states a change or a piece, a line headed by the entry shows the natural chain unless it says otherwise.
UniProt P67775: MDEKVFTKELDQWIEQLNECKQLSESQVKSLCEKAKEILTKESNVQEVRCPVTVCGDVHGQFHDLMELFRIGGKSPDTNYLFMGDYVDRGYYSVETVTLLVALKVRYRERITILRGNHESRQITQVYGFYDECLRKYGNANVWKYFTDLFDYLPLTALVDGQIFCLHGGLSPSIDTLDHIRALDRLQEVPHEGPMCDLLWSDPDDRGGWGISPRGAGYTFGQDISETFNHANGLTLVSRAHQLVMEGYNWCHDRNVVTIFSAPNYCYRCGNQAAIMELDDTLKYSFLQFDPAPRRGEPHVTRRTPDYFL
UniProt P52732: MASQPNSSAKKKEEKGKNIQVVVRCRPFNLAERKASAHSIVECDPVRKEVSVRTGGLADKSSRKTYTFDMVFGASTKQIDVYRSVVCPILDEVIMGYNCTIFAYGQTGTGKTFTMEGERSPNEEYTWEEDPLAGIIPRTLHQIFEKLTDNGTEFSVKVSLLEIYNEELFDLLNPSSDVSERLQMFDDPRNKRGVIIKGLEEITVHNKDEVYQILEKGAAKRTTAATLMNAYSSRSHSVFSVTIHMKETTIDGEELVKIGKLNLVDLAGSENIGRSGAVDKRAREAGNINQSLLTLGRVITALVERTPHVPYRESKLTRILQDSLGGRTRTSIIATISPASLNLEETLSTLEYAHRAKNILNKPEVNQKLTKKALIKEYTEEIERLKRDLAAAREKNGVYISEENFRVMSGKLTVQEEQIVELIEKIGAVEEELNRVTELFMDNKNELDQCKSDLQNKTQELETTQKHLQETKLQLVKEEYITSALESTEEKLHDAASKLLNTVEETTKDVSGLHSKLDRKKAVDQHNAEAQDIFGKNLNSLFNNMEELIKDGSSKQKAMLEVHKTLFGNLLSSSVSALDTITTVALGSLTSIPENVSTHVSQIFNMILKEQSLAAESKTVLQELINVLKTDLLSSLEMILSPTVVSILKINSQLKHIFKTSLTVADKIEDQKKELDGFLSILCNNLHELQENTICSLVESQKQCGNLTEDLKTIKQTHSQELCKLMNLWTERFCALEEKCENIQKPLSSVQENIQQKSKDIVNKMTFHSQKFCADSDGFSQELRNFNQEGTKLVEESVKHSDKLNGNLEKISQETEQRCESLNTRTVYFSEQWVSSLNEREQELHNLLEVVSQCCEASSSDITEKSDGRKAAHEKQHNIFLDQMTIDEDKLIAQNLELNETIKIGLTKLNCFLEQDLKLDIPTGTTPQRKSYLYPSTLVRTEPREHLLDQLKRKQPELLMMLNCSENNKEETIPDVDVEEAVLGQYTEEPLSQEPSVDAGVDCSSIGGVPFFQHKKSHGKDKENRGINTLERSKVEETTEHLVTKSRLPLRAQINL

These are yes or no findings as the source states them, for the method shown. Binding seen in cells or lysates may run through a third protein. Binding can be weak; no strength is given.

The first assay addresses endogenous PP2A/C (human (endogenous in HeLa)) (UniProt P67775). The assay is described as follows: co-IP; endogenous proteins; HeLa, BT549 (also MB231, MB435) cells treated with 100 nM Nocodazole for 5 hours, or HeLa cells released from a double thymidine block; NP-40 lysis buffer, antibody 4 °C 16 hours, Protein A/G beads, Western blot. (In general: A western blot detects proteins with antibodies after separation by electrophoresis.)
On to “endogenous EG5 (KIF11) (from UniProt P52732 1-1056)”, for which the binding result was “binds”.

The target of the next assay is His-tagged PP2A/Cα (human) (UniProt P67775). Nature of the assay: pull-down; FLAG-tagged EG5 and fragments expressed in HEK293T cells incubated with purified His-PP2A/Cα conjugated to Ni-NTA agarose; anti-FLAG Western blot; only the target purified.
Regarding “FLAG-tagged EG5 fragment Head (1~350aa) (from UniProt P52732 1-350) (domain or fragment)”, the binding result is given as “no binding”.

Turning to “FLAG-tagged EG5 fragment Stalk (351~550aa) (from UniProt P52732 351-550) (domain or fragment)”, the binding entry was “no binding”.

With “FLAG-tagged EG5 fragment Tail-1 (551aa~750aa) (from UniProt P52732 551-750) (domain or fragment)”, the binding entry is recorded as “no binding”.

Regarding “FLAG-tagged EG5 fragment Tail-2 (751~1057aa) (from UniProt P52732 751-1056) (domain or fragment)”, the binding entry is recorded as “binds”.

Consider “FLAG-tagged full length EG5 expressed in HEK293T (from UniProt P52732 1-1056)”, for which the binding result is listed as “binds”.
